Data as given in PubChem BioAssay AID1671195 (Yale University, 2021)

Purpose: 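Knockdowns that increase or decrease uptake of fluorescent LDL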 (primary screen)
Cell system: human Huh7 hepatoma cells
Reagent: siRNA pool against human genes, 18 nM
Time to read-out: about 2 to 2.5 days of knockdown, then 8 h LDL uptake
Treatment: DiI-labelled LDL at 30 µg/ml for 8 h, in lipoprotein-deficient serum medium
Read-out: 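Fluorescent LDL signal imaged in cells, scaled to the plate median, robust z-score for each replicate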
Scale: robust z-score: higher = more LDL uptake after knockdown
Hit rule: 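Active when two or more replicates show a robust z-score above 2 or below -2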
In all, the deposit lists about 22,000 reagents; this is an unselected part. In the full data, about 1,510 (6.9%) were called active. 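Active includes knockdowns raising or lowering LDL uptake; positive z-scores mean more uptake, negative mean less.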 Entries without a mark were called inactive. Reagents against one gene are numbered here.

| gene | reagent no. | robust z-score, replicate 1 | robust z-score, replicate 2 | robust z-score, replicate 3 |
| --- | --- | --- | --- | --- |
| LINC02716 (GeneID 374387) | 1 | 0.126 | 0.467 | -0.293 |
| ABRACL (GeneID 58527) | 1 | 0.227 | 0.46 | 0.572 |
| A4GALT (GeneID 53947) | 1 | 0.674 | 1.82 | 0.712 |
| KLHL29 (GeneID 114818) | 1 | -0.527 | -1.85 | -1.43 |
| ZNHIT1 (GeneID 10467) | 1 | -0.0438 | 1.41 | -0.313 |
| SLC4A8 (GeneID 9498) | 1 | -2.26 (active) | -1.97 | -2.2 |
| SLC4A8 (GeneID 9498) | 2 | -0.292 | -0.405 | 0.191 |
| RBMXL3 (GeneID 139804) | 1 | 0.238 | -0.148 | -0.0838 |
| PTPN12 (GeneID 5782) | 1 | -0.398 | -0.583 | -0.784 |
| OR2H2 (GeneID 7932) | 1 | -0.0419 | -1.32 | 0.159 |
| SAMM50 (GeneID 25813) | 1 | -0.695 | -1.74 | -1.08 |
| TMEM158 (GeneID 25907) | 1 | 0.0553 | 0.588 | 0.509 |
| TXN (GeneID 7295) | 1 | 2.34 (active) | 2.81 | 2.19 |
| PHC2 (GeneID 1912) | 1 | -0.274 | -0.664 | 0.162 |
| RAB3GAP1 (GeneID 22930) | 1 | 0.341 | 1.58 | 1.23 |
| FXYD4 (GeneID 53828) | 1 | 0.19 | -0.675 | 0.131 |
| S100A8 (GeneID 6279) | 1 | -0.313 | -0.296 | -0.816 |
| ETV3 (GeneID 2117) | 1 | -0.349 | -0.847 | 1.83 |
| PRR20A (GeneID 122183) | 1 | -0.389 | -0.352 | 0.0116 |
| NDUFB7 (GeneID 4713) | 1 | 1.28 | 0.134 | 0.829 |
| YARS1 (GeneID 8565) | 1 | 0.051 | 0.181 | -0.0611 |
| RPSAP49 (GeneID 401537) | 1 | -0.444 | -0.245 | -0.0628 |
| CARS2 (GeneID 79587) | 1 | 2.91 (active) | 1.97 | 3.06 |
| OSBPL7 (GeneID 114881) | 1 | 0.207 | 1.21 | 0.189 |
| PLCXD3 (GeneID 345557) | 1 | -0.183 | -0.224 | -0.329 |
| RAB5C (GeneID 5878) | 1 | -2.79 (active) | -1.52 | -2.65 |
| ADGRB1 (GeneID 575) | 1 | 1.07 | 0.164 | -0.628 |
| C17orf58 (GeneID 284018) | 1 | -1.66 | -1.43 | -1.87 |
| KLK7 (GeneID 5650) | 1 | 0.686 | 1.38 | 1.13 |
| MIR3667HG (GeneID 348645) | 1 | -0.0575 | -0.932 | -0.258 |
| CHST5 (GeneID 23563) | 1 | -0.864 | -0.864 | -1.1 |
| ELL (GeneID 8178) | 1 | -0.221 | -0.433 | -0.537 |
| LOC341306 (retired record) (GeneID 341306) | 1 | 1.69 | 1.51 | 0.684 |
| TULP2 (GeneID 7288) | 1 | 1.84 | 0.188 | 0.0313 |
| GRAMD1C (GeneID 54762) | 1 | 2.2 | 0.696 | 1.71 |
| PPP1R14B (GeneID 26472) | 1 | 0.267 | 0.442 | 0.17 |
| LOC100287740 (GeneID 100287740) | 1 | -0.421 | -0.619 | -0.993 |
| SNAP23 (GeneID 8773) | 1 | -0.679 | -0.955 | -1.09 |
| CTIF (GeneID 9811) | 1 | -0.387 | -1.3 | -1.38 |
| EIF2B3 (GeneID 8891) | 1 | -0.824 | -0.651 | -0.598 |
| ACER2 (GeneID 340485) | 1 | -0.887 | -0.998 | -0.704 |
| STC2 (GeneID 8614) | 1 | -0.00276 | 2.38 | 0.0725 |
| NPY4R (GeneID 5540) | 1 | -1.64 | -1.31 | -1.63 |
| PLA2G6 (GeneID 8398) | 1 | 0.896 | 1.21 | 0.731 |
| OR6F1 (GeneID 343169) | 1 | 1.91 | 1.85 | 1.74 |
| FECH (GeneID 2235) | 1 | -1.26 | -0.0765 | -0.738 |
| FOXP1 (GeneID 27086) | 1 | 0.0363 | -0.665 | -0.998 |
| CRELD2 (GeneID 79174) | 1 | -0.265 | -0.582 | -0.236 |
| KHDRBS2 (GeneID 202559) | 1 | 5.67 (active) | 4.69 | 5.78 |
| DENND5A (GeneID 23258) | 1 | 0.378 | -0.435 | 1.07 |
| TPD52L1 (GeneID 7164) | 1 | -0.411 | 0.362 | -0.257 |
| APOH (GeneID 350) | 1 | 0.525 | 1.37 | 0.688 |
| CHMP4C (GeneID 92421) | 1 | 1.18 | -0.65 | 0.0834 |
| COL4A5 (GeneID 1287) | 1 | 0.175 | -0.991 | -0.752 |
| DECR1 (GeneID 1666) | 1 | -1.54 | -1.21 | -1.77 |
| THOC6 (GeneID 79228) | 1 | 3.34 (active) | 3.46 | 2.49 |
| SRP54 (GeneID 6729) | 1 | -0.774 | -0.0561 | -0.616 |
| TRIR (GeneID 79002) | 1 | -0.846 | -1.04 | -0.597 |
| GALNT9 (GeneID 50614) | 1 | -0.628 | 1.68 | -0.381 |
| GJB6 (GeneID 10804) | 1 | -0.261 | 0.309 | 0.641 |
| TAF1L (GeneID 138474) | 1 | -0.791 | -0.721 | -0.637 |
| EPM2A (GeneID 7957) | 1 | -0.14 | -0.269 | 0.203 |
| LOC139046 (retired record) (GeneID 139046) | 1 | 0.19 | -0.576 | -1.57 |
| LETM2 (GeneID 137994) | 1 | -0.387 | -0.255 | -0.0876 |
| SPTLC3 (GeneID 55304) | 1 | -2.13 | -0.0742 | -0.534 |
| METTL15P1 (GeneID 100130758) | 1 | 0.426 | 0.202 | 0.549 |
| CYP7B1 (GeneID 9420) | 1 | -0.202 | 0.388 | 0.0331 |
| SRPRA (GeneID 6734) | 1 | -3.12 | -1.56 | -1.66 |
